Assay [1] addresses T1, claudin-7 (human (endogenous in HT29 and SW948)) (UniProt O95471).
T1 sequence: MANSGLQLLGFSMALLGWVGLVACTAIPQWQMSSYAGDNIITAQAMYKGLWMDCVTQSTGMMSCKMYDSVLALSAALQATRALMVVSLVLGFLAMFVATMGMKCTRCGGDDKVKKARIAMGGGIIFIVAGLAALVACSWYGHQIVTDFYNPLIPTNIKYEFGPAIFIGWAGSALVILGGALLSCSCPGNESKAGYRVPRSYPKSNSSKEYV
Kind of assay: co-IP; lysates of HT29 and SW948 wt and cld7 knock-down cells (HEPES buffer, 1% Lubrol or 1% TritonX-100, 4°C) precipitated with control IgG, anti-EpC, anti-cld7 or anti-Tspan8 and ProteinG-Sepharose; Western blot; precipitates also separated by sucrose density gradient (Fig.1E,1F,4D). For orientation: Immunoblotting shows a protein as a band on a membrane.

Protein sequences, listed by entry. Tags and fused reporters are not part of them.
UniProt P05556: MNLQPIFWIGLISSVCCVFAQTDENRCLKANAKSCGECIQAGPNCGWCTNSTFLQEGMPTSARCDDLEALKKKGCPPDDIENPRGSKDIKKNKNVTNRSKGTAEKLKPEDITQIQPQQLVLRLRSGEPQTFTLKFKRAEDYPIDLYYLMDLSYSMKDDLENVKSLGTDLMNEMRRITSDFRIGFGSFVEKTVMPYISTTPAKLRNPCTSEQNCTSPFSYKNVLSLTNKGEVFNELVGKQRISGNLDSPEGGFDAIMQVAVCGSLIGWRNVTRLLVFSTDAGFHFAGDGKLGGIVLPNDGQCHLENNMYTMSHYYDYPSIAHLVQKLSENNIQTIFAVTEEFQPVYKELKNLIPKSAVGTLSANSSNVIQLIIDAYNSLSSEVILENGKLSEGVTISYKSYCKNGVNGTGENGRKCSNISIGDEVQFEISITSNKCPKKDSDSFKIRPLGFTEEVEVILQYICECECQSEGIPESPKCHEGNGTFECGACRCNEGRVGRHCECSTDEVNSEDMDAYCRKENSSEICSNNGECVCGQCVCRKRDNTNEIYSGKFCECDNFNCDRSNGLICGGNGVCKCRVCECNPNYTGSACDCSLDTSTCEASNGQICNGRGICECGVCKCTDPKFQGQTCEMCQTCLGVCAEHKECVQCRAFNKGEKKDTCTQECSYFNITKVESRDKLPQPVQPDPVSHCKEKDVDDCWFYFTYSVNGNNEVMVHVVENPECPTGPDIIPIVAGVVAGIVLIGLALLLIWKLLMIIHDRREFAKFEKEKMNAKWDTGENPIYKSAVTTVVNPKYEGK
UniProt P27487: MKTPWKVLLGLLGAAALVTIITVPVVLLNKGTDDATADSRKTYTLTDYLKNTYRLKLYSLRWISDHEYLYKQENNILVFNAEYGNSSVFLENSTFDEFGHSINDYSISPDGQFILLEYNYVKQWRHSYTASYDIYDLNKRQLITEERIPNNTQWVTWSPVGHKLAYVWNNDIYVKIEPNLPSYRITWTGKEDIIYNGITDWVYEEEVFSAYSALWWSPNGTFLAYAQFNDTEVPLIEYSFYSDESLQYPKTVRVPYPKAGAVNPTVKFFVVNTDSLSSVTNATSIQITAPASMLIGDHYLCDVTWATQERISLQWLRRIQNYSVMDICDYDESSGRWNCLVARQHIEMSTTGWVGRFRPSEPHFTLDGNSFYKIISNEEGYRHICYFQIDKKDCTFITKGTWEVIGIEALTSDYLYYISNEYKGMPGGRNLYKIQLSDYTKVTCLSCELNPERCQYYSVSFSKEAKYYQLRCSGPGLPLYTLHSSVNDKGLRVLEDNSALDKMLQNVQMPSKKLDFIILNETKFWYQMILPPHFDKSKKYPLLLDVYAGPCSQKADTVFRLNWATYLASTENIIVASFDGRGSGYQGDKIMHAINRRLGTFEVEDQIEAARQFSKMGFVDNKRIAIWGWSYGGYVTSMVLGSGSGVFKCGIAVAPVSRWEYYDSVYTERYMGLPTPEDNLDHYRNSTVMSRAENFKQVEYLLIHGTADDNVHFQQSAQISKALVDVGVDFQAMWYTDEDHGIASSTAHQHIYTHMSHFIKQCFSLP

Assay [2] concerns the target T2, EpCAM (human (endogenous in HT29 and SW948)) (UniProt P16422).
T2 sequence: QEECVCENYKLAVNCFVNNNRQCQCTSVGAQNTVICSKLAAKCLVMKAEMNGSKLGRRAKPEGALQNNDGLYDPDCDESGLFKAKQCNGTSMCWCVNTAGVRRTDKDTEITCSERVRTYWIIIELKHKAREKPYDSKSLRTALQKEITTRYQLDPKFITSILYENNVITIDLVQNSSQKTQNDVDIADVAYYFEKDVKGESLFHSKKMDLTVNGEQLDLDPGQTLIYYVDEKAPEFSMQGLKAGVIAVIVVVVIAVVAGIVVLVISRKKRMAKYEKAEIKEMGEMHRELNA
The assay is described as above.

The target in assay [3] is CD29 (human (endogenous in HT29)) (UniProt P05556). Briefly: co-IP; lysates of PMA-treated HT29 wt and holoclone-derived cells precipitated with control IgG, anti-α3 or anti-β1 and ProteinG-Sepharose; blotted with anti-cld7 and anti-p-cld7 (Fig.3F).
For assay [4], the target named is T3, Tspan8 (human (endogenous in HT29 and SW948)) (UniProt P19075).
T3 sequence: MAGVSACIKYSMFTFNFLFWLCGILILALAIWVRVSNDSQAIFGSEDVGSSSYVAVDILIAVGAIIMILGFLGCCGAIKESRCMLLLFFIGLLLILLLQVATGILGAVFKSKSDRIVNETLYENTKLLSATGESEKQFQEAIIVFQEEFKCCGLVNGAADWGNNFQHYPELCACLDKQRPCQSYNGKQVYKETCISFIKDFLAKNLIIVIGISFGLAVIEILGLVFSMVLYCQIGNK
Briefly: co-IP; lysates of HT29 and SW948 wt and cld7 knock-down cells (HEPES buffer, 1% Lubrol or 1% TritonX-100, 4°C) precipitated with control IgG, anti-EpC, anti-cld7 or anti-Tspan8 and ProteinG-Sepharose; Western blot; precipitates also separated by sucrose density gradient (Fig.1E,1F,4D).

For assay [5], the target named is T1, claudin-7 (human (endogenous in HT29 and SW948)). The description is as above. This is another data set of the same source.

Read-outs that look alike come from different tables or passages of the source. Results are given in words; binding and its absence hold for the method and conditions named. Binding seen in cells or lysates may run through a third protein. Some results given as binding are weak or reduced against the parent protein; the word gives no strength.

In the case of “CD26 (from UniProt P27487 1-766) (enzyme)”, the binding entry in assay [1] is recorded as “binds”; in assay [2], “no binding”.

B1: phosphorylated claudin-7 (protein, UniProt O95471 1-211)
chain: MANSGLQLLGFSMALLGWVGLVACTAIPQWQMSSYAGDNIITAQAMYKGLWMDCVTQSTGMMSCKMYDSVLALSAALQATRALMVVSLVLGFLAMFVATMGMKCTRCGGDDKVKKARIAMGGGIIFIVAGLAALVACSWYGHQIVTDFYNPLIPTNIKYEFGPAIFIGWAGSALVILGGALLSCSCPGNESKAGYRVPRSYPKSNSSKEYV
modifications: phosphorylated (detected with anti-p-cld7; site not given)
Turning to B1, the binding entry in assay [3] is “binds”.

B2: claudin-7 (protein, UniProt O95471 1-211)
chain: MANSGLQLLGFSMALLGWVGLVACTAIPQWQMSSYAGDNIITAQAMYKGLWMDCVTQSTGMMSCKMYDSVLALSAALQATRALMVVSLVLGFLAMFVATMGMKCTRCGGDDKVKKARIAMGGGIIFIVAGLAALVACSWYGHQIVTDFYNPLIPTNIKYEFGPAIFIGWAGSALVILGGALLSCSCPGNESKAGYRVPRSYPKSNSSKEYV
B2: the binding entry in assay [3] is given as “binds”.

B3: EpCAM (protein, UniProt P16422 24-314)
chain: QEECVCENYKLAVNCFVNNNRQCQCTSVGAQNTVICSKLAAKCLVMKAEMNGSKLGRRAKPEGALQNNDGLYDPDCDESGLFKAKQCNGTSMCWCVNTAGVRRTDKDTEITCSERVRTYWIIIELKHKAREKPYDSKSLRTALQKEITTRYQLDPKFITSILYENNVITIDLVQNSSQKTQNDVDIADVAYYFEKDVKGESLFHSKKMDLTVNGEQLDLDPGQTLIYYVDEKAPEFSMQGLKAGVIAVIVVVVIAVVAGIVVLVISRKKRMAKYEKAEIKEMGEMHRELNA
On to B3, for which the binding result in assay [4] and in assay [5] was “binds” each time.

Values taken from article PMC4385835.
